Values from PubChem BioAssay AID720505 (Drosophila RNAi Screening Center, 2013).

Assay: 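Genes needed for store-operated calcium entry in fly cells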 (primary screen)
System: Drosophila S2R+ cells
Reagents: long dsRNA against Drosophila genes
Conditions: thapsigargin (2 µM) in calcium-free buffer to empty internal stores, then 2 mM calcium added back
Detection: 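Fluo-4 signal in 384-well plates read on a FLIPR after thapsigargin (2 µM, calcium-free) store depletion and 2 mM calcium add-back; unnormalised mean endpoint per well; screen run twice, selected wells retested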
Scale: calcium signal and retest calcium signal: higher = more calcium entry after store depletion
Active means: 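About 1500 genes called as lowering calcium entry, by varying amounts, judged against per-plate control wells with STIM1 as positive and Rho1 as negative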
Calls: active = called as lowering calcium entry; inactive = not called
In all, the deposit lists about 20,000 reagents; shown is an unselected part of those with a known target gene and a result. Over the whole deposit, about 2,100 (10%) were called active. 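Raw plate signals without normalisation; calls rest on control-based scores that were not deposited; replicate 2 separates called from uncalled poorly.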 The numbers tell different reagents against one gene apart. Names joined by + are all predicted targets of the reagent. Not stated in the record: the amount of reagent, the time to read-out.

no.	Target gene	reagent no.	calcium signal, replicate 1	calcium signal, replicate 2	retest calcium signal, replicate 1	retest calcium signal, replicate 2	outcome
1	PIG-Wb	1	95	85.5			inactive
2	Ctps	1	104	120			inactive
3	Ctps	2	72.4	147			inactive
4	CG8369	1	125	108			inactive
5	CG42579	1	91.2	145			inactive
6	CG14323	1	127	160			inactive
7	ND-18	1	72.3	163			active
8	CG34423 + Mthfs	1	63.8	140			active
9	CG11583	1	111	119			inactive
10	Mgat3	1	291	77.6			inactive
11	sub	1	150	98.2			inactive
12	fipi	1	165	98.3			inactive
13	Or22b	1	158	161			inactive
14	RpS11	1	226	158	110	106	inactive
15	RpS11	2	90	117			inactive
16	Tsp39D	1	229	112			inactive
17	lsn	1	213	178			inactive
18	MCU	1	101	69.3			inactive
19	Pif1A + Pif1B	1	105	155			inactive
20	Pif1A + Pif1B	2	101	115			inactive
21	Pif1A + Pif1B	3	115	189			inactive
22	CG10877	1	245	223			inactive
23	CG43234 (retired record)	1	111	7158			inactive
24	CG13921	1	111	79.8	97.8	110	inactive
25	CG34277 + CG31542	1	242	111			inactive
26	CG11885	1	147	182			inactive
27	ITP	1	148	245			inactive
28	CG13032	1	106	144			inactive
29	RpL11	1	110	90.4			inactive
30	CG32354	1	62.9	86.9			active
31	CG32354	2	93.5	69.2	7336	104	inactive
32	CG32354	3	112	249			inactive
33	wash	1	91.2	121			inactive
34	CG10151	1	163	119			inactive
35	CG4270	1	157	174			inactive
36	Ir56d	1	157	163			inactive
37	CG16984	1	72.3	96.7			inactive
38	Rnf146	1	81.7	156			inactive
39	Ir51a	1	119	169			inactive
40	CheB42c	1	89	170			inactive
41	wds	1	73.1	110			active
42	Vlet	1	114	106			inactive
43	CG5151	1	106	168			inactive
44	CG5151	2	113	161			inactive
45	CG1441	1	272	157			inactive
46	CG42262 (retired record)	1	95.7	94.4			inactive
47	Opa1	1	122	193			inactive
48	CG14132	1	52	54.2			active
49	CG34457	1	150	134			inactive
50	Smyd4-2	1	116	100			inactive
51	CG17752	1	197	117			inactive
52	nbs	1	102	91.5			inactive
53	Ugt37C2	1	121	93.9			inactive
54	Ac78C	1	91.7	112			active
55	Ac78C	2	67.2	95			active
56	beta4GalNAcTB	1	177	135			inactive
57	CG43077	1	58.8	106			inactive
58	lncRNA:CR42859	1	76.4	67.6			active
59	CG10486	1	77	77.1			inactive
60	Sc2	1	129	115			inactive
61	RnpS1	1	144	171			inactive
62	mei-38	1	90.4	67			active
63	ttv	1	158	139			inactive
64	CG15820	1	121	120			inactive
65	CG3528	1	207	177			inactive
66	CG34033	1	138	126			inactive
67	CG13856	1	231	154			inactive
68	CG14817	1	108	156			inactive
69	CG8399	1	150	150			inactive
70	CG11695	1	92.7	116			inactive
71	Pop4	1	86.9	79.1			inactive
72	CG14545	1	260	192			inactive
73	CG13004	1	70.8	114			active
74	unc79	1	152	193			inactive
75	CG32264	1	88.8	122			inactive
76	CG32264	2	102	93.7			inactive
77	CG32264	3	104	109	114	86.7	inactive
78	CG32264	4	88.5	155			inactive
79	CG10097 + CG10096	1	139	161			inactive
80	CG10097 + CG10096	2	145	117			inactive
81	CG33287	1	117	187			inactive
82	bora	1	99.1	124			inactive
83	CG31294	1	101	224			inactive

10 successive reagents from above, quoted:
no.	Target gene	reagent no.	calcium signal, replicate 1	calcium signal, replicate 2	retest calcium signal, replicate 1	retest calcium signal, replicate 2	outcome
31	CG32354	2	93.5	69.2	7336	104	inactive
32	CG32354	3	112	249			inactive
33	wash	1	91.2	121			inactive
34	CG10151	1	163	119			inactive
35	CG4270	1	157	174			inactive
36	Ir56d	1	157	163			inactive
37	CG16984	1	72.3	96.7			inactive
38	Rnf146	1	81.7	156			inactive
39	Ir51a	1	119	169			inactive
40	CheB42c	1	89	170			inactive
